Counter-ions that a name gives are not always drawn. This is one part of the list. The calls rarely recur for the same compound in another form.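 In K562 cells expressing nanoluciferase-fused kinases, luminescence was recorded at 4 h intervals between 2 and 18 h, normalized as percent of control with DMSO at 100% and a positive control at 0%. A significant (2 sigma) signal drop marks a time point as decreased. The authors' rule for a hit is not shown and takes in more than the number of time points.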
Legend:
Assay in all cases: kinase-Nluc reporter destabilization hit call (1 = scored as downregulated) (binary); higher = compound decreases kinase abundance
Settings in all cases: K562; 2-18 h
EGFR = EGFR (UniProt P00533)
EGFR_G719S = EGFR_G719S (UniProt P00533)
EGFR_G719S_T790M = EGFR_G719S_T790M (UniProt P00533)
EGFR_L718V = EGFR_L718V (UniProt P00533)
EGFR_L858R = EGFR_L858R (UniProt P00533)
EGFR_L861Q = EGFR_L861Q (UniProt P00533)
EGFR_T790M = EGFR_T790M (UniProt P00533)
EPHA2 = EPHA2 (UniProt P29317)
ERBB3 = ERBB3 (UniProt P21860)
[1] = target: ERBB4_R711C (clone: ERBB4_mut) (UniProt Q15303)

Sequences of proteins named here, by UniProt entry; tags and fusion partners are left off.
UniProt P29317, whole entry: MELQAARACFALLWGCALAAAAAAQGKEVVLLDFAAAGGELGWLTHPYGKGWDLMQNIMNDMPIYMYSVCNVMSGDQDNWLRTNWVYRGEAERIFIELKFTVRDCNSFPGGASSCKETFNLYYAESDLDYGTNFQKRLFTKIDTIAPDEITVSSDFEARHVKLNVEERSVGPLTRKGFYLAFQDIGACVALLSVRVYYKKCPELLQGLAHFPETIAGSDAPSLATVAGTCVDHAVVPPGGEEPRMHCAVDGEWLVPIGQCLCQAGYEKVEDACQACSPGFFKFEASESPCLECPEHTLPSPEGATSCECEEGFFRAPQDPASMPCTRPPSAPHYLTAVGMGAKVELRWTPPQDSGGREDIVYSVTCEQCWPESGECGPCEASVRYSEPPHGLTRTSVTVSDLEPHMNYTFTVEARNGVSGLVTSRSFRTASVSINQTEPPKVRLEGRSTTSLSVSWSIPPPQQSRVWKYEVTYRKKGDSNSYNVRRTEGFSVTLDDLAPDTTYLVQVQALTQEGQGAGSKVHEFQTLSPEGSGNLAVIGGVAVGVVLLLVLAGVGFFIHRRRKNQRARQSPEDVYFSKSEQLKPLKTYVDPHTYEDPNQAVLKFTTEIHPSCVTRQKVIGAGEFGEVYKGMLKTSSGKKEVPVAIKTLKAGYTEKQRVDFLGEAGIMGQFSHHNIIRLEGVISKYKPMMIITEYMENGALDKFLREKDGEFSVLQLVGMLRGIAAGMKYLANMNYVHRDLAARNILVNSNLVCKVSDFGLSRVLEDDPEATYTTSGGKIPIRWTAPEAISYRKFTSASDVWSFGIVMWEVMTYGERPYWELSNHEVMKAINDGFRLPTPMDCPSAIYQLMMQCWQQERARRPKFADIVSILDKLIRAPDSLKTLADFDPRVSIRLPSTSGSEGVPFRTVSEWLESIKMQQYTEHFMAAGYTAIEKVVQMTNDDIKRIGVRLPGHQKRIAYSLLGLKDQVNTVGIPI
UniProt P21860, whole entry: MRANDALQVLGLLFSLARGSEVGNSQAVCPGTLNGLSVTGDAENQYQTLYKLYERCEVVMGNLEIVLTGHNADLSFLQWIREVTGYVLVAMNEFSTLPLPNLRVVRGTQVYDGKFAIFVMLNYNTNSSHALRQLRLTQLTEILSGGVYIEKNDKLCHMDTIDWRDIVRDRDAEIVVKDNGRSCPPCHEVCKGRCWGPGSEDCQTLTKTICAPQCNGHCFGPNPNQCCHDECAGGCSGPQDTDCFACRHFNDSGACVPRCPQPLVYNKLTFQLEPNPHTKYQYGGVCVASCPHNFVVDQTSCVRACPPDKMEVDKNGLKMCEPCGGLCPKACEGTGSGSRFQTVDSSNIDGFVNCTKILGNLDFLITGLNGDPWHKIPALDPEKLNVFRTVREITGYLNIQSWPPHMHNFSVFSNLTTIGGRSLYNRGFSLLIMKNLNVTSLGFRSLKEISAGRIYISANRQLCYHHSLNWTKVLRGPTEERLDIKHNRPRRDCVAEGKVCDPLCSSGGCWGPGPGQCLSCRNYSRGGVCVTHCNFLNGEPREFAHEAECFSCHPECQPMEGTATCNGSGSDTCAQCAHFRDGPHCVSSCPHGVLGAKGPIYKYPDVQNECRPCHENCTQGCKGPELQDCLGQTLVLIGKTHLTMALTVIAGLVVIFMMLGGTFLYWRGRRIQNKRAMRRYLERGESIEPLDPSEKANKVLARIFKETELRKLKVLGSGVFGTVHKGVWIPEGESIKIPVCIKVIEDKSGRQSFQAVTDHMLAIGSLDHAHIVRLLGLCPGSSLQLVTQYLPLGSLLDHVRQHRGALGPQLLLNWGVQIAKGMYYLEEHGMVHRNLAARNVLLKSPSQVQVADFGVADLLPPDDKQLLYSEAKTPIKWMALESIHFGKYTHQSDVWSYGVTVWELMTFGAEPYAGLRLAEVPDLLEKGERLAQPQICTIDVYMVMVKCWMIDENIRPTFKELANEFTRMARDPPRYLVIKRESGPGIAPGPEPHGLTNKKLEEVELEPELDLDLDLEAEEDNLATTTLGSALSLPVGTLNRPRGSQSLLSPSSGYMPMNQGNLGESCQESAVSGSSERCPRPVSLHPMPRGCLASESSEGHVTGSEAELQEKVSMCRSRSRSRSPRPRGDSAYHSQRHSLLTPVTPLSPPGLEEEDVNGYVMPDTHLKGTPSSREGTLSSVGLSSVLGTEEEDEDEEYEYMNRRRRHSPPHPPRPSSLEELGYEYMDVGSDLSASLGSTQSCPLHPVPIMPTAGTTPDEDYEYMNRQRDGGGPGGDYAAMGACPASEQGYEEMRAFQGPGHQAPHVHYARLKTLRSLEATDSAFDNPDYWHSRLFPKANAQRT
UniProt Q15303, whole entry R711C: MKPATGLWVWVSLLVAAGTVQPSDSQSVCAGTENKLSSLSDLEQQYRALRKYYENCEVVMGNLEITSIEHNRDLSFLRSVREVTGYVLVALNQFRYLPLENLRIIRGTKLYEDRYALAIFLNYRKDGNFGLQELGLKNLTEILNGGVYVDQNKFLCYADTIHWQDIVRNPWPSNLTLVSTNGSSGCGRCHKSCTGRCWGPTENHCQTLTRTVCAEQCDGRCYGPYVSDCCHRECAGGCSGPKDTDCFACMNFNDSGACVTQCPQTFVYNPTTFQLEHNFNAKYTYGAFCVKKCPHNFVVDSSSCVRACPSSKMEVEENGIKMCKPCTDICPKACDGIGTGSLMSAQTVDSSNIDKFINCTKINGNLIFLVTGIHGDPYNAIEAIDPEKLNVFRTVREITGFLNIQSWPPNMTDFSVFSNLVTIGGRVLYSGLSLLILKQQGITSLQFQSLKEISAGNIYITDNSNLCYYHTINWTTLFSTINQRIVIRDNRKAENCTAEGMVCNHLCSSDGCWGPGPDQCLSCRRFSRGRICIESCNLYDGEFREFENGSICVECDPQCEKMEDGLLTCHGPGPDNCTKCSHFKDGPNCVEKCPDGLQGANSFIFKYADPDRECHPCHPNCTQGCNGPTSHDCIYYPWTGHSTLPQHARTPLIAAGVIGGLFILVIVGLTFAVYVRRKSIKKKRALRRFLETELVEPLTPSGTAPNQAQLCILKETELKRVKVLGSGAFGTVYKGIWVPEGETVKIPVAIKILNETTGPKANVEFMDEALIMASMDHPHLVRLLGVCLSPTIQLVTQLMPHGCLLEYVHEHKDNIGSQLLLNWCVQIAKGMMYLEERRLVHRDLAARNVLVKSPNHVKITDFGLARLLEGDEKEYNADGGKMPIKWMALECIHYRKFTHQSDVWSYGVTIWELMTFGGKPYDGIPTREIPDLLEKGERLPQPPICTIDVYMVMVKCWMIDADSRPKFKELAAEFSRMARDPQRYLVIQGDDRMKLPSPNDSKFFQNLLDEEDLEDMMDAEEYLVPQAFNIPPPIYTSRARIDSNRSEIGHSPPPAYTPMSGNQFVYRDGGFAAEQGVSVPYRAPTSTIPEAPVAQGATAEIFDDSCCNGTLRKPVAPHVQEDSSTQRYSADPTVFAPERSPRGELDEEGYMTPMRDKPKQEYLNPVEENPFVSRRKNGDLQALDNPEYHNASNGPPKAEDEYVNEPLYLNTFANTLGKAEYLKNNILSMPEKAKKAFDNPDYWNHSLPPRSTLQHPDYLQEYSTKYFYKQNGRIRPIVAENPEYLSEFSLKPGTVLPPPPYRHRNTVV

Measured: kinase-Nluc reporter destabilization hit call

CCc1cccc(CC)c1NC(=O)c1nn(C)c2c1CCc1cnc(Nc3ccc(C(=O)NC4CCN(C)CC4)cc3OC(F)(F)F)nc1-2 (2 µM)
inactive: EGFR 0 | EGFR_G719S 0 | EGFR_G719S_T790M 0 | EGFR_L718V 0 | EGFR_L858R 0 | EGFR_L861Q 0 | EGFR_T790M 0 | EPHA2 = 0 | ERBB3 = 0 | [1] 0

CC1(N)CCN(c2cnc3c(-c4cccc(Cl)c4Cl)[nH]nc3n2)CC1 (2.5 µM)
inactive: EGFR 0 | EGFR_G719S 0 | EGFR_G719S_T790M 0 | EGFR_L718V 0 | EGFR_L858R 0 | EGFR_L861Q 0 | EGFR_T790M 0 | EPHA2 = 0 | ERBB3 = 0 | [1] 0

C[C@@H]1O[C@@H](OC[C@H]2O[C@@H](Oc3cc(O)c4c(c3)O[C@H](c3ccc(O)cc3)CC4=O)[C@H](O)[C@@H](O)[C@@H]2O)[C@H](O)[C@H](O)[C@H]1O [Narirutin] (10 µM)
inactive: EGFR 0 | EGFR_G719S 0 | EGFR_G719S_T790M 0 | EGFR_L718V 0 | EGFR_L858R 0 | EGFR_L861Q 0 | EGFR_T790M 0 | EPHA2 = 0 | ERBB3 = 0 | [1] 0

C=C[C@H]1[C@H](O[C@@H]2O[C@H](CO)[C@@H](O)[C@H](O)[C@H]2OC(=O)c2c(O)cc(O)cc2-c2cccc(O)c2)OC=C2C(=O)OCC[C@H]21 [Amarogentin] (10 µM)
inactive: EGFR 0 | EGFR_G719S 0 | EGFR_G719S_T790M 0 | EGFR_L718V 0 | EGFR_L858R 0 | EGFR_L861Q 0 | EGFR_T790M 0 | EPHA2 = 0 | ERBB3 = 0 | [1] 0

Nc1cccc(S(=O)(=O)N2CCCN(S(=O)(=O)c3ccc4c(c3)OCCO4)CC2)c1 (10 µM)
inactive: EGFR 0 | EGFR_G719S 0 | EGFR_G719S_T790M 0 | EGFR_L718V 0 | EGFR_L858R 0 | EGFR_L861Q 0 | EGFR_T790M 0 | EPHA2 = 0 | ERBB3 = 0 | [1] 0

COc1ncc(Nc2ncc([C@@H](C)N3CCN(S(C)(=O)=O)CC3)cc2-c2nc(C)nc(N)n2)cc1F (10 µM)
inactive: EGFR 0 | EGFR_G719S 0 | EGFR_G719S_T790M 0 | EGFR_L718V 0 | EGFR_L858R 0 | EGFR_L861Q 0 | EGFR_T790M 0 | EPHA2 = 0 | ERBB3 = 0 | [1] 0

COc1ccc(CN2C3CC2CN(c2ccc(-c4cc(OCC(C)(C)O)cn5ncc(C#N)c45)cn2)C3)cn1 [Selpercatinib] (10 µM)
inactive: EGFR 0 | EGFR_G719S 0 | EGFR_G719S_T790M 0 | EGFR_L718V 0 | EGFR_L858R 0 | EGFR_L861Q 0 | EGFR_T790M 0 | EPHA2 = 0 | ERBB3 = 0 | [1] 0

O=C1NC(=O)C(c2cn(-c3ccccc3)nc2-c2ccc(F)cc2)N1 (stereo not given) (10 µM)
inactive: EGFR 0 | EGFR_G719S 0 | EGFR_G719S_T790M 0 | EGFR_L718V 0 | EGFR_L858R 0 | EGFR_L861Q 0 | EGFR_T790M 0 | EPHA2 = 0 | ERBB3 = 0 | [1] 0

Nc1[nH]c(=O)nc2c1ncn2[C@@H]1O[C@H](CO)[C@@H](O)[C@H]1O [Crotonoside] (10 µM)
inactive: EGFR 0 | EGFR_G719S 0 | EGFR_G719S_T790M 0 | EGFR_L718V 0 | EGFR_L858R 0 | EGFR_L861Q 0 | EGFR_T790M 0 | EPHA2 = 0 | ERBB3 = 0 | [1] 0

CCCCOc1ccc(CC/C=C2\SC(=O)N(CCN)C2=O)cc1 [K145 (hydrochloride)] (2.5 µM)
inactive: EGFR 0 | EGFR_G719S 0 | EGFR_G719S_T790M 0 | EGFR_L718V 0 | EGFR_L858R 0 | EGFR_L861Q 0 | EGFR_T790M 0 | EPHA2 = 0 | ERBB3 = 0 | [1] 0

Oc1ccccc1C(=S)N1CCCC1 (10 µM)
inactive: EGFR 0 | EGFR_G719S 0 | EGFR_G719S_T790M 0 | EGFR_L718V 0 | EGFR_L858R 0 | EGFR_L861Q 0 | EGFR_T790M 0 | EPHA2 = 0 | ERBB3 = 0 | [1] 0

COc1ccc(-n2c(C)c([N+](=O)[O-])c3ccc(O)cc32)cc1 (10 µM)
inactive: EGFR 0 | EGFR_G719S 0 | EGFR_G719S_T790M 0 | EGFR_L718V 0 | EGFR_L858R 0 | EGFR_L861Q 0 | EGFR_T790M 0 | EPHA2 = 0 | ERBB3 = 0 | [1] 0

CN1C(=O)NC(Cc2c[nH]c3c(Cl)cccc23)C1=O (racemic) [Necrostatin 2 (racemate)] (10 µM)
inactive: EGFR 0 | EGFR_G719S 0 | EGFR_G719S_T790M 0 | EGFR_L718V 0 | EGFR_L858R 0 | EGFR_L861Q 0 | EGFR_T790M 0 | EPHA2 = 0 | ERBB3 = 0 | [1] 0

CN(C)Cc1cccc(N=C(c2ccccc2)c2c(O)[nH]c3cc(C(=O)N(C)C)ccc23)c1 (10 µM)
inactive: EGFR 0 | EGFR_G719S 0 | EGFR_G719S_T790M 0 | EGFR_L718V 0 | EGFR_L858R 0 | EGFR_L861Q 0 | EGFR_T790M 0 | EPHA2 = 0 | ERBB3 = 0 | [1] 0

NC(=O)c1ccc(-c2cnn3ccc(NCc4cccnc4)nc23)cc1 (2.5 µM)
inactive: EGFR 0 | EGFR_G719S 0 | EGFR_G719S_T790M 0 | EGFR_L718V 0 | EGFR_L858R 0 | EGFR_L861Q 0 | EGFR_T790M 0 | EPHA2 = 0 | ERBB3 = 0 | [1] 0

Pulled one by one from the list above, 2 records:
CN1C(=O)NC(Cc2c[nH]c3c(Cl)cccc23)C1=O (racemic) [Necrostatin 2 (racemate)] (10 µM)
inactive: EGFR 0 | EGFR_G719S 0 | EGFR_G719S_T790M 0 | EGFR_L718V 0 | EGFR_L858R 0 | EGFR_L861Q 0 | EGFR_T790M 0 | EPHA2 = 0 | ERBB3 = 0 | [1] 0

NC(=O)c1ccc(-c2cnn3ccc(NCc4cccnc4)nc23)cc1 (2.5 µM)
inactive: EGFR 0 | EGFR_G719S 0 | EGFR_G719S_T790M 0 | EGFR_L718V 0 | EGFR_L858R 0 | EGFR_L861Q 0 | EGFR_T790M 0 | EPHA2 = 0 | ERBB3 = 0 | [1] 0

(more compounds)

CCN1/C(=C/C(C)=O)Sc2ccc(OC)cc21 (10 µM)
inactive: EGFR 0 | EGFR_G719S 0 | EGFR_G719S_T790M 0 | EGFR_L718V 0 | EGFR_L858R 0 | EGFR_L861Q 0 | EGFR_T790M 0 | EPHA2 = 0 | ERBB3 = 0 | [1] 0

CN(C)Cc1cccc(N=C(c2ccccc2)c2c(O)[nH]c3cc(C(N)=O)ccc23)c1 (10 µM)
inactive: EGFR 0 | EGFR_G719S 0 | EGFR_G719S_T790M 0 | EGFR_L718V 0 | EGFR_L858R 0 | EGFR_L861Q 0 | EGFR_T790M 0 | EPHA2 = 0 | ERBB3 = 0 | [1] 0
